Amino acid sequences for entries named in this document (tags omitted). A change or cut given only in a name is not applied to a line headed by its entry.
UniProt A0A0U2JSS8: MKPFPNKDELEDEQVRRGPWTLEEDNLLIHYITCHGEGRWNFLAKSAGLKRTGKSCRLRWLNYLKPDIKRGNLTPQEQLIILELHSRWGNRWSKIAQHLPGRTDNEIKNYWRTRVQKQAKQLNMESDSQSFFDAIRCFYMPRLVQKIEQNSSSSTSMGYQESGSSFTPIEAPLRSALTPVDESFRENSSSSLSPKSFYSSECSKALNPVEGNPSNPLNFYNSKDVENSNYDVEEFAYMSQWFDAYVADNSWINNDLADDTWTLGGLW

In PMC9735685:

Assays:
[1] = biological target: T1, AtRCAR1 (BK-AtRCAR1) (Arabidopsis) (UniProt Q84MC7); test: two-hybrid; AD-FtMYB22 (pGADT7) + BK-AtRCARs (pGBKT7) co-transformed into yeast AH109; growth on SD/-Trp/-Leu/-His/-Ade medium, no ABA added
T1 sequence: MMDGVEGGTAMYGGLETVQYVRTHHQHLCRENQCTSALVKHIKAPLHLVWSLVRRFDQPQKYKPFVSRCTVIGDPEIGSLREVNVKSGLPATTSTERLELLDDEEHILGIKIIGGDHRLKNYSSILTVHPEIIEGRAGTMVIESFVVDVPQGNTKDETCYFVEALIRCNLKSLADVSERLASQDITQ

[2] = biological target: T2, AtRCAR2 (BK-AtRCAR2) (Arabidopsis) (UniProt Q1ECF1); test: as above
T2 sequence: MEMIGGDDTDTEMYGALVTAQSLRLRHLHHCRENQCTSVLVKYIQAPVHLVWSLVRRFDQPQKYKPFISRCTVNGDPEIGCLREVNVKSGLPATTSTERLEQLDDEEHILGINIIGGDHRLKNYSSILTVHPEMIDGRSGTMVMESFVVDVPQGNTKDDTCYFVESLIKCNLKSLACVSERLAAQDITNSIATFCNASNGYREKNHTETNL

[3] = biological target: T1, AtRCAR1 (BK-AtRCAR1) (Arabidopsis); test: two-hybrid; AD-FtMYB22 (pGADT7) + BK-AtRCARs (pGBKT7) in yeast AH109; growth on SD/-Trp/-Leu/-His/-Ade medium containing 10 uM or 30 uM ABA
[4] = biological target: T2, AtRCAR2 (BK-AtRCAR2) (Arabidopsis); test: as above

binding [1]: binds
binding [2]: binds
binding [3]: binds
binding [4]: binds
Substance: FtMYB22 (AD-FtMYB22) (from UniProt A0A0U2JSS8)

These are yes or no findings as the source states them, for the method shown. A result given as binding can be weak or reduced; the word gives no strength.
